Laboratory results published in the supplement of paper PMC3334620.
The full ranking holds about 33,000 sequences; the median of “E-score (-0.5 to 0.5)” is about -0.0059, and the highest 2% start at about 0.26. Some of the results follow.

biological target: T1, Cin5 (UniProt P40917); assay: PBM E-score (8-mer binding enrichment) (E-score (-0.5 to 0.5)); higher = stronger / more preferred TF binding; conditions: protein concentration: 100 nM; construct: GST-full length
T1 sequence: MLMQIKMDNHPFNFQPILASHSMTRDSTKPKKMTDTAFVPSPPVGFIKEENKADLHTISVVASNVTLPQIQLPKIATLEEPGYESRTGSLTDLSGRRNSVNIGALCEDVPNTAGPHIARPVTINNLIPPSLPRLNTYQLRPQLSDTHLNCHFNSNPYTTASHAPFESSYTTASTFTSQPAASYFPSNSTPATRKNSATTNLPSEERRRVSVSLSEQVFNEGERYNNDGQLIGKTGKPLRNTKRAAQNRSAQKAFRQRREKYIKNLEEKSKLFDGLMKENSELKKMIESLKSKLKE
Experimental: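 Universal 'all 10-mer' protein binding microarrays (Agilent AMADID 015681) probed with GST-tagged S. cerevisiae TFs (full-length or DBD) made by in vitro transcription/translation (PURExpress), about 100-200 nM. Bound TF was detected with fluorescent anti-GST. Each ungapped 8-mer (which stands for itself and its reverse complement) is scored by the PBM enrichment score (E-score), a modified Wilcoxon-Mann-Whitney statistic from -0.5 to +0.5, computed with the Universal PBM Analysis Suite. Scale: above 0.35 generally sequence-specific binding.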

Sequence | PBM E-score
ACGTCAAC | 0.0251
GATCGACA | -0.0332
CGTGCTAA | -0.159
CCATTTGA | -0.0459
ACCCTCCC | 0.211
AATCTTGT | 0.168
GTCGCAGA | 0.0238
AAATGTAG | 0.101
TACAATCA | 0.152
ATTCGTAC | 0.194
AAGAGATA | 0.0515
ACAGCTCC | -0.0268
GATGTTCC | 0.0101
GCTGCCCA | -0.122
AGCGTTGG | -0.066
AAGATGGA | 0.109
GCTAATCA | 0.212
ATTCGCTC | 0.141
CGAAGTCA | -0.0586
GCGCTGGA | -0.129
TATTGCCA | 0.142
GAGCACTA | -0.108
ATCGCAAA | 0.112
TATATGAA | 0.129
GAGGTATA | 0.177

Sequence | PBM E-score
ACGATGCA | -0.0364
ATAGTAGA | 0.139
ACTGTTGA | -0.0374
AGTATCTG | -0.139
AGTACTAA | 0.186
AAGTTCCT | -0.0434
AGTCCGTC | -0.0718
AAGACACG | 0.0495
AGATTCCA | 0.177
ATGTTCAA | -0.00599
CGTGGTTA | -0.0732
CGAAAGCC | -0.293
CCGCCTTA | -0.1
ACAATGCA | 0.134
CAGGTTGG | 0.0152
CCGCACGG | -0.0998
ATACCGAA | -0.00536
ATTCTATG | 0.113
AGGATATG | 0.174
TGAACAAA | 0.217
ATACGGGC | -0.128
CAGTCTGG | -0.276
CAACTCAC | 0.0244
GCAGAATA | 0.0866
ACGAGCCC | -0.0676

Sequence | PBM E-score
CATCCAAG | -0.0392
GCTAGTTA | 0.132
AAGGGTAG | -0.142
CCTTCAAG | -0.126
AGCACGAT | 0.0861
AGCGCGGA | 0.0803
CTTTGCCC | -0.199
ACGCACTA | 0.0242
AGACCCCC | -0.45
ATCTATTA | 0.321
ATGTATGG | 0.0201
CCCCTGAA | 0.00838
AGGTCGAC | 0.102
AGGCGGCC | -0.201
AGACCACC | -0.123
ACTTGCAC | 0.115
AAGTTCAT | 0.111
CACGTTGC | -0.209
AGGGAGTA | -0.0437
GGACCCCC | -0.463
GAGCGCGC | 0.109
AAACGTAT | 0.167
AAATGTGG | 0.16
GCGCAAAA | 0.105
ACTGGCAA | -0.0416

Sequence | PBM E-score
ACCGTAAA | 0.0629
GGCCAGAC | -0.24
GCGGTTGA | 0.0621
GGATTAAA | 0.163
ATTTAGTA | 0.303
ATGGGGCG | 0.102
TCTGGCCA | -0.0187
ATCGACGC | 0.108
GCGATACC | -0.132
AGAACTGA | 0.024
CCTTAGCA | -0.0346
ACACTCCT | -0.0471
AATGATAA | 0.227
AATTCCAC | 0.213
TATACGAA | 0.171
GGCCAACC | -0.186
TCAATTGA | 0.123
GCAAGAAC | 0.0698
CCAGCGCG | -0.0927
CATCGGTC | -0.174
GCGCCCGC | -0.105
GCGATCCC | -0.193
AACTGAAA | 0.0105
CCCAAGAC | -0.174
CTCTCGCA | -0.219

Sequence | PBM E-score
CATCTTCA | -0.124
CAGAGATG | 0.0572
CCTGACTC | -0.0607
AGACCTTC | -0.134
GCCCATCA | -0.115
GTATCAAC | 0.0602
CAGGATTA | 0.107
CGAGCACC | -0.2
ACGACGAT | 0.163
AAATATGG | 0.0459
CTTGGGCC | -0.316
ATCAAGGG | -0.0329
ACTGAGAT | 0.0809
AACTAAAG | 0.00596
AGGGAACA | -0.126
TACGCATA | 0.154
TATCGAAA | 0.19
CTTGTCGC | -0.00961
AAACATTA | 0.0149
CCGCTTAG | -0.0568
CCCACAGG | -0.152
CGGCCGGA | -0.0752
TCTAACCA | 0.123
CCTACAGC | 0.0164
GCTCGCAC | -0.0813

Sequence | PBM E-score
TGAGGACA | -0.00686
AAGCACGG | -0.048
AAGTCAAA | 0.0801
AATTTTTG | 0.0437
AATCGTGG | 0.217
CCCTCACG | -0.121
GGGTTGAC | 0.0366
AAAAGGAG | -0.153
GCATGCCC | 0.076
ATCCAGTA | 0.208
AGACGACG | 0.0542
CCCTTGTA | -0.0853
GTGATTTA | 0.19
TAGGCACA | -0.0732
CAGAGATC | -0.0122
TCCGGGAA | 0.146
GAGCTCGA | 0.069
ATGCCCTC | -0.0244
CTACAGAA | 0.0595
ATCATCGC | 0.126
CCTTTGTC | -0.0179
CAGAAATA | 0.164
AACGGCAC | -0.203
CTCCGAAG | -0.0908
AATTTTGT | 0.148

Reformatted with tabs: part of the list above
Sequence	PBM E-score
AAATATGG	0.0459
CTTGGGCC	-0.316
ATCAAGGG	-0.0329
ACTGAGAT	0.0809
AACTAAAG	0.00596
AGGGAACA	-0.126
TACGCATA	0.154
TATCGAAA	0.19
CTTGTCGC	-0.00961
AAACATTA	0.0149
CCGCTTAG	-0.0568
CCCACAGG	-0.152
CGGCCGGA	-0.0752
TCTAACCA	0.123
CCTACAGC	0.0164
GCTCGCAC	-0.0813
TGAGGACA	-0.00686
AAGCACGG	-0.048
AAGTCAAA	0.0801
AATTTTTG	0.0437
AATCGTGG	0.217
CCCTCACG	-0.121
GGGTTGAC	0.0366
AAAAGGAG	-0.153
GCATGCCC	0.076
ATCCAGTA	0.208
AGACGACG	0.0542
CCCTTGTA	-0.0853
GTGATTTA	0.19
TAGGCACA	-0.0732
CAGAGATC	-0.0122
TCCGGGAA	0.146
GAGCTCGA	0.069
ATGCCCTC	-0.0244
CTACAGAA	0.0595
ATCATCGC	0.126
CCTTTGTC	-0.0179
CAGAAATA	0.164
AACGGCAC	-0.203
CTCCGAAG	-0.0908

A few values from above:
PBM E-score with GGGTTGAC is entered as 0.0366
PBM E-score with CTCCGAAG is entered as -0.0908

The results go on:

Sequence | PBM E-score
AGCACGAC | -0.126
ATCCTGGC | -0.0732
AATTCAGC | 0.143
CACAGTCC | -0.159
AGCGGCTG | -0.125
GCACTAAC | -0.0978
GAAAGGGA | -0.278
GAACTCAA | -0.0343
CTGTGCTC | 0.0772
ACCAACGG | -0.176
AGCGGTTG | 0.0567
CGGCAGAC | -0.217
AGCAGGGG | -0.251
ATGGTGCC | -0.289
AGTATGCG | -0.0448
CCCCGCCA | 0.0727
AGGCGTCG | -0.11
CAGTTATG | 0.175
AGACTTAT | -0.0908
AAATAATA | 0.313
AACGTGCT | -0.116
GCACCCGA | -0.206
